In all, about 33,000 sequences were measured (“E-score (-0.5 to 0.5)”: median about -0.016, highest 2% from about 0.3 on). Some of the results follow.

The target of the test is T1, Yer184c (UniProt P39961).
T1 sequence: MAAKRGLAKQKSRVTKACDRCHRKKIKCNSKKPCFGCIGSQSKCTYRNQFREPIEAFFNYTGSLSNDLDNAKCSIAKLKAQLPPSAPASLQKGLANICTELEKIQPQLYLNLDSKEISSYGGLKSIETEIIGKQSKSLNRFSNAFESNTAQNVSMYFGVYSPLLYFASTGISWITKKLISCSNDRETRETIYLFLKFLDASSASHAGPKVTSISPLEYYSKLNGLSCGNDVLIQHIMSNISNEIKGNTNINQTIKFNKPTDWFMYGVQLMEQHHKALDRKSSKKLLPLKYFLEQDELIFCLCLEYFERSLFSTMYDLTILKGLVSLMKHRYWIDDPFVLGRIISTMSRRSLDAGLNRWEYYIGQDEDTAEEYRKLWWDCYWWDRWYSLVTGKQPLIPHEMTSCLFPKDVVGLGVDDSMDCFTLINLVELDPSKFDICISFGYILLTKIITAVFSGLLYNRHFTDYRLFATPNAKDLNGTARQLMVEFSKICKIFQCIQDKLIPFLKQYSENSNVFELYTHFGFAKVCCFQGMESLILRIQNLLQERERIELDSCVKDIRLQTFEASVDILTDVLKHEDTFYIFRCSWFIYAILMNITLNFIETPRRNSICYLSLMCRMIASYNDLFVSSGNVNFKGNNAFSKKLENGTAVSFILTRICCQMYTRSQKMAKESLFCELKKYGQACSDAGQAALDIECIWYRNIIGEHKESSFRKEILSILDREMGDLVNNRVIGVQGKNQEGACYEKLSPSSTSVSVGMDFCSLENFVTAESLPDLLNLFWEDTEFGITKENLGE
Nature of the test: PBM E-score (8-mer binding enrichment) (E-score (-0.5 to 0.5)); higher = stronger / more preferred TF binding. To be noted: protein concentration: 100 nM; construct: GST-full length. The procedure: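 Universal 'all 10-mer' protein binding microarrays (Agilent AMADID 015681) probed with GST-tagged S. cerevisiae TFs (full-length or DBD) made by in vitro transcription/translation (PURExpress), about 100-200 nM. Bound TF was detected with fluorescent anti-GST. Each ungapped 8-mer (which stands for itself and its reverse complement) is scored by the PBM enrichment score (E-score), a modified Wilcoxon-Mann-Whitney statistic from -0.5 to +0.5, computed with the Universal PBM Analysis Suite. Scale: above 0.35 generally sequence-specific binding.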
As to ACAATCGA, the “PBM E-score” value is 0.157.

As for ACGCGCGG, the “PBM E-score” value is -0.0239.

Take CTCATAGA: the “PBM E-score” value is -0.03.

Take TATACTGA: the “PBM E-score” value turned out to be 0.234.

For ACAAAGTG, the “PBM E-score” value is -0.0907.

Take ATGAGGAC: the “PBM E-score” value is -0.147.

Regarding GCCATCGC, the “PBM E-score” value was -0.196.

Regarding CGTTTGCC, the “PBM E-score” value turned out to be 0.0965.

Consider AGATAATG, for which the “PBM E-score” value was determined as 0.154.

Regarding ATTATTAA, the “PBM E-score” value is 0.203.

CACGCCGG: the “PBM E-score” value was found to be 0.267.

As for TGAAAAAA, the “PBM E-score” value worked out at 0.245.

Regarding TGTGATAA, the “PBM E-score” value came out at 0.112.

Turning to AAGTGCAA, the “PBM E-score” value is -0.096.

Consider CACATGGA, for which the “PBM E-score” value is -0.177.

With TGATTCAA, the “PBM E-score” value stood at 0.251.

For TCGCCCAA, the “PBM E-score” value was -0.0759.

In the case of ATGAATAC, the “PBM E-score” value came out at 0.0157.

With CAACCGGG, the “PBM E-score” value came out at 0.14.

Consider AGAAGTCC, for which the “PBM E-score” value came to 0.00141.

As to CTGAACGC, the “PBM E-score” value was -0.056.

Consider CAATACGC, for which the “PBM E-score” value is -0.0176.

Consider AGGTGAGG, for which the “PBM E-score” value was -0.122.

With GCCCTGCC, the “PBM E-score” value is -0.133.

Consider CCCGGCAA, for which the “PBM E-score” value came to 0.335.

As for GCATCACC, the “PBM E-score” value is -0.26.

For the sequence TTCCTAAA, the “PBM E-score” value worked out at 0.157.

Turning to GGTGACAA, the “PBM E-score” value turned out to be 0.162.

Consider CATAATCG, for which the “PBM E-score” value was determined as 0.0775.

On to ATTAAGTC, for which the “PBM E-score” value was found to be 0.123.

Consider CTACCGCA, for which the “PBM E-score” value is -0.144.

Take AAGAGGTG: the “PBM E-score” value was -0.0611.

As for ACTCTAAA, the “PBM E-score” value is 0.0975.

For the sequence CTGAAGTC, the “PBM E-score” value is -0.0867.

In the case of GCTTGCCA, the “PBM E-score” value was -0.00303.

As for AGCGCGCT, the “PBM E-score” value was -0.0737.

Regarding TCGGCGAA, the “PBM E-score” value turned out to be 0.294.

In the case of AGGTATTA, the “PBM E-score” value amounted to 0.0804.

Regarding ACTACTAG, the “PBM E-score” value was found to be 0.0102.

For the sequence AGCCTAAT, the “PBM E-score” value is -0.0799.

AATATTAA: the “PBM E-score” value turned out to be 0.311.

In the case of AACAACGC, the “PBM E-score” value stood at 0.0496.

For the sequence CGGTCCAG, the “PBM E-score” value is -0.0513.

Consider ATATATGA, for which the “PBM E-score” value worked out at 0.131.

Take ACGCTAGG: the “PBM E-score” value was -0.287.

Regarding CTTTCGTA, the “PBM E-score” value was found to be 0.0787.

With GACGTACC, the “PBM E-score” value was -0.111.

As to GCCAGGCA, the “PBM E-score” value is 0.0313.

For the sequence CACCCTTA, the “PBM E-score” value was -0.147.

For ACGTCAAA, the “PBM E-score” value was -0.07.

For GTATGATA, the “PBM E-score” value came out at 0.226.

As to GAAACTTC, the “PBM E-score” value was 0.0503.

For CGGGTACC, the “PBM E-score” value was -0.129.

Turning to ATCCGTCC, the “PBM E-score” value was -0.0635.

As for ATTTCCAC, the “PBM E-score” value came out at 0.067.

Consider AGCTCTTG, for which the “PBM E-score” value was -0.18.

Turning to ATTAAAGG, the “PBM E-score” value was 0.176.

As to AGTGCTGA, the “PBM E-score” value was -0.285.

ACGGCGGC: the “PBM E-score” value is 0.00561.

For CCCTTACC, the “PBM E-score” value is -0.158.

Consider ACGAACCG, for which the “PBM E-score” value is -0.0302.

As to AGCGTGAC, the “PBM E-score” value is -0.0445.

With CAGGAACC, the “PBM E-score” value was -0.147.

On to CTCTTCCC, for which the “PBM E-score” value was -0.172.

Regarding CACGTCAA, the “PBM E-score” value is -0.162.

As for ATATCCAT, the “PBM E-score” value is 0.0888.

Consider AATTGGTC, for which the “PBM E-score” value was determined as 0.167.

Turning to AGATCTAT, the “PBM E-score” value is 0.0428.

Consider ACGCCATG, for which the “PBM E-score” value was -0.216.

In the case of AAGCTTGG, the “PBM E-score” value was -0.115.

Turning to CGCTGGTA, the “PBM E-score” value was -0.107.

As for AACCACCT, the “PBM E-score” value is 0.0267.

With AGGAGGAA, the “PBM E-score” value amounted to 0.00792.

For ACCCAAGT, the “PBM E-score” value was -0.09.

In the case of AACTAGTC, the “PBM E-score” value is -0.137.

In the case of ATACTGGG, the “PBM E-score” value is -0.113.

For the sequence AACGATCG, the “PBM E-score” value turned out to be 0.139.

Regarding AGGTCTTG, the “PBM E-score” value is -0.00739.

For AAGGGGGA, the “PBM E-score” value is -0.302.

Regarding ATTGTATA, the “PBM E-score” value was 0.276.

CGGAGGAA: the “PBM E-score” value was 0.175.

Turning to TGGCAACA, the “PBM E-score” value is -0.101.

For the sequence CAACAGGC, the “PBM E-score” value was -0.0861.

AATCCAGT: the “PBM E-score” value came out at 0.0724.

As for TATTTCAA, the “PBM E-score” value amounted to 0.28.

Take CCTTAGGA: the “PBM E-score” value was -0.032.

For the origin of these results see the supplement of paper PMC3334620.
